For 22 compounds, T/C and survivor count results are on record in PubChem BioAssay AID318 (DTP/NCI, 2004).

The test relates to BDF1 mice, P815 leukemia ip, survival T/C. Briefly: NCI In Vivo Anticancer Drug Screen. Data for tumor model P815 Mast Cell Leukemia (Ascitic) (intraperitoneal) in B6D2F1 (BDF1) mice. The conditions noted are these: higher T/C = longer survival. As to the method: The antitumor activity of compounds was measured in mice bearing transplantable tumors. Survival or tumor size were measured and the results are expressed as the measurement made in the treated group (T) divided by the measurement made in the vehicle treated control group (C). The tumor model used in this assay is P815 Mast Cell Leukemia (Ascitic) (intraperitoneal) in B6D2F1 (BDF1) mice

[1] abbreviates: T/C endpoint: survival time, mean or median, dose: 25.0 mg/kg/injection, schedule: Q01DX015 (ip), vehicle: carboxymethylcellulose (CMC).
Where [2] appears, read: T/C endpoint: survival time, mean or median, dose: 200.0 mg/kg/injection, schedule: Q01DX015 (ip), vehicle: carboxymethylcellulose (CMC).
The mark [3] stands for this setting: T/C endpoint: survival time, mean or median, dose: 100.0 mg/kg/injection, schedule: Q01DX010 (ip), vehicle: saline.
[4] abbreviates: T/C endpoint: survival time, mean or median, dose: 125.0 mg/kg/injection, schedule: Q01DX015 (ip), vehicle: carboxymethylcellulose (CMC).
Setting [5] is: T/C endpoint: survival time, mean or median, dose: 50.0 mg/kg/injection, schedule: Q01DX015 (ip), vehicle: carboxymethylcellulose (CMC).
[6] abbreviates: T/C endpoint: survival time, mean or median, dose: 100.0 mg/kg/injection, schedule: Q01DX015 (ip), vehicle: carboxymethylcellulose (CMC).
Setting [7] is: T/C endpoint: survival time, mean or median, dose: 120.0 mg/kg/injection, schedule: Q01DX010 (ip), vehicle: saline.
Where [8] appears, read: T/C endpoint: survival time, mean or median, dose: 160.0 mg/kg/injection, schedule: Q01DX010 (ip), vehicle: saline.

The list does not hold the whole screen: it gathers tests that were run many times, whatever their T/C, doses with no T/C, and many T/C values between a quarter and a half above the control. Other doses and runs of a compound stand elsewhere. T/C: endpoint of the treated group in % of that of the vehicle group. Some entries give survivors of the animals treated and no T/C: the source holds a T/C of zero for them, seemingly a mark for toxic or unscored doses. Some doses without a T/C left all or most animals alive at the check, yet need not have been tolerated: the source hardly ever lists a survival T/C far under the control, and the zero likely stands for such cases as well. Survivors were counted at the toxicity check, usually on the fifth day, unless a day is given; later deaths do not show. Schedule codes are those of the source, taken here to give the interval after Q, in days (D) or hours (H), and the number of doses after X. Some entries were tested several times; the values are given in rising order. For survival time, this PubChem deposit counts one and a half times the control or more as active, and values a quarter to a half above the control carry no call in these data; other NCI protocols may use other cut-offs. Signs of the kind (2×) say how often a value occurs here. Starred links: 1 amine or outer side, 2 acyl side, 3 side chain; linkers in the order of their positions; H or OH if unused. Positions of bridges follow the written chain, without caps; N, C: chain ends. Non-standard residues stand in square brackets, D forms with d. Residues, ends and D or L forms follow the SMILES beside them. Chains are numbered I, II in the order given. Actinocin(1to9) = Cc1c2oc3c(C)ccc(C(=O)[*:2])c3nc-2c(C(=O)[*:1])c(N)c1=O; NMeV = CN[CH](C(=O)O)C(C)C; Aze = O=C(O)[CH]1CCN1; Sar = CNCC(=O)O

For `CC[C@]1(O)C[C@H]2CN(CCc3c([nH]c4ccccc34)[C@@](C(=O)OC)(c3cc4c(cc3OC)N(C=O)[C@H]3[C@@](O)(C(=O)OC)[C@H](OC(C)=O)[C@]5(CC)C=CCN6CC[C@]43[C@@H]65)C2)C1`, the T/C (T/C endpoint: survival time, mean or median, dose: 0.15 mg/kg/injection, schedule: Q01DX015 (ip), vehicle: saline) was 133 % of control; the T/C (T/C endpoint: survival time, mean or median, dose: 1.2 mg/kg/injection, schedule: Q01DX001 (ip), vehicle: saline) was 135 % of control; the T/C (T/C endpoint: survival time, mean or median, dose: 2.9 mg/kg/injection, schedule: Q01DX001 (ip), vehicle: saline) was 139 % of control; the T/C (T/C endpoint: survival time, mean or median, dose: 38.0 micrograms/kg/injection, schedule: Q01DX015 (ip), vehicle: saline) is 137 % of control; the T/C (T/C endpoint: survival time, mean or median, dose: 50.0 micrograms/kg/injection, schedule: Q01DX015 (ip), vehicle: carboxymethylcellulose (CMC)) was 128 % of control; the T/C (T/C endpoint: survival time, mean or median, dose: 75.0 micrograms/kg/injection, schedule: Q01DX015 (ip), vehicle: saline) is 147 % of control. Besides, the survivor count is 10 of 10 (T/C endpoint: survival time, mean or median, dose: 0.5 mg/kg/injection, schedule: Q01DX015 (ip), vehicle: saline); 10 of 10 (T/C endpoint: survival time, mean or median, dose: 0.75 mg/kg/injection, schedule: Q01DX015 (ip), vehicle: saline); 10 of 10 (T/C endpoint: survival time, mean or median, dose: 1.12 mg/kg/injection, schedule: Q01DX015 (ip), vehicle: saline); 8 of 10 (T/C endpoint: survival time, mean or median, dose: 6.5 mg/kg/injection, schedule: Q01DX001 (ip), vehicle: saline).

With `CC(=O)OCC1OC(n2cnc3c(=S)nc[nH]c32)C(OC(C)=O)C1OC(C)=O` (configuration not stated), the T/C under setting [1] is 138 % of control. For the same compound, the survivor count under setting [2] is on record as 10 of 10.

Regarding `COc1cc(-c2ccc(Nc3ccccc3C(=O)O)c(OC)c2)ccc1Nc1ccccc1C(=O)O`, the T/C under setting [3] is 132 % of control. For the same compound, under “T/C endpoint: survival time, mean or median, dose: 150.0 mg/kg/injection, schedule: Q01DX010 (ip), vehicle: saline”, the survivor count was 5 of 6.

With `NOCc1ccsn1`, the survivor count (T/C endpoint: median survival time, dose: 180.0 mg/kg/injection, schedule: Q01DX010 (ip), vehicle: saline sonified) was 4 of 6.

On to `O=C(Nc1ccc(NC2=NCCN2)cc1)c1ccc(C(=O)Nc2ccc(NC3=NCCN3)cc2)cc1`, for which, under “T/C endpoint: survival time, mean or median, dose: 8.0 mg/kg/injection, schedule: Q01DX010 (ip), vehicle: saline”, the T/C is 142 and 147 % of control. Where the note is “T/C endpoint: survival time, mean or median, dose: 16.0 mg/kg/injection, schedule: Q01DX010 (ip), vehicle: saline”, the survivor count is reported as 6 of 6.

Take `NC12CC3CC(CC(C3)C1)C2`: the survivor count (T/C endpoint: survival time, mean or median, dose: 200.0 mg/kg/injection, schedule: Q01DX010 (ip), vehicle: saline) is recorded as 2 of 6.

As for `CN(Cc1cnc2nc(N)nc(N)c2n1)c1c(Cl)cc(C(=O)NC(CCC(=O)O)C(=O)O)cc1Cl` (configuration not stated), the T/C was 147 % of control (T/C endpoint: survival time, mean or median, dose: 2.5 mg/kg/injection, schedule: Q01DX015 (ip), vehicle: carboxymethylcellulose (CMC)) and 127 % of control (T/C endpoint: survival time, mean or median, dose: 75.0 mg/kg/injection, schedule: Q01DX015 (ip), vehicle: carboxymethylcellulose (CMC)). Under setting [4], the survivor count is reported as 10 of 10.

As for `Cc1c2oc3c(C)ccc(C(=O)NC4C(=O)NC(C(C)C)C(=O)N5CCCC5C(=O)N(C)CC(=O)N(C)C(C(C)C)C(=O)OC4C)c3nc-2c(C(=O)NC2C(=O)NC(C(C)C)C(=O)N3CCC3C(=O)N(C)CC(=O)N(C)C(C(C)C)C(=O)OC2C)c(N)c1=O` (configuration not stated) (I: TV[Aze][Sar][NMeV] / II: TVP[Sar][NMeV]; ester I:1-I:C, II:1-II:C; linker I:N-II:N via Actinocin(1to9); configuration not given here), the T/C is 125 % of control (T/C endpoint: median survival time, dose: 270.0 micrograms/kg/injection, schedule: Q04DX003 (ip), vehicle: saline + alcohol); 135 % of control (T/C endpoint: median survival time, dose: 450.0 micrograms/kg/injection, schedule: Q04DX003 (ip), vehicle: saline + alcohol); 134 % of control (T/C endpoint: median survival time, dose: 1250.0 micrograms/kg/injection, schedule: Q01DX001 (ip), vehicle: saline + alcohol).

For `Cc1cc2nc3c(=O)[nH]c(=O)nc-3n(CC(O)C(O)C(O)C(O)CO)c2cc1C` (configuration not stated), the survivor count by setting is: under setting [5], 10 of 10; under setting [6], 10 of 10; under setting [2], 10 of 10; (T/C endpoint: survival time, mean or median, dose: 400.0 mg/kg/injection, schedule: Q01DX015 (ip), vehicle: carboxymethylcellulose (CMC)) 9 of 10.

Regarding `CN(C)c1ccc(Nc2c3ccccc3nc3ccccc23)cc1`, the T/C (T/C endpoint: survival time, mean or median, dose: 80.0 mg/kg/injection, schedule: Q01DX010 (ip), vehicle: saline) was 135 % of control. For the same compound, under setting [7], the survivor count was 5 of 6.

On to `Clc1ccc2c(Cl)ncnc2c1`, for which the survivor count reads like this: under setting [1], 10 of 10; under setting [5], 10 of 10; under setting [6], 9 of 10; under setting [2], 6 of 10.

Turning to `O=C(Nc1ccc(C2=NCCN2)cc1)Nc1cccc(NC(=O)Nc2ccc(C3=NCCN3)cc2)c1`, the T/C (T/C endpoint: survival time, mean or median, dose: 60.0 mg/kg/injection, schedule: Q01DX010 (ip), vehicle: saline) was 128 and 136 % of control. The survivor count (T/C endpoint: survival time, mean or median, dose: 480.0 mg/kg/injection, schedule: Q01DX010 (ip), vehicle: saline) is reported as 6 of 6.

As for `C[N+](C)(C)c1ncnc2nc[nH]c12`, the survivor count under setting [7] is recorded as 3 of 6.

On to `COc1ccc(CSc2ncnc3nc[nH]c23)cc1`, for which the survivor count reads like this: under setting [4], 10 of 10; (T/C endpoint: survival time, mean or median, dose: 250.0 mg/kg/injection, schedule: Q01DX015 (ip), vehicle: carboxymethylcellulose (CMC)) 10 of 10; (T/C endpoint: survival time, mean or median, dose: 500.0 mg/kg/injection, schedule: Q01DX015 (ip), vehicle: carboxymethylcellulose (CMC)) 8 of 10.

For `COS(C)(=O)=O`, under setting [3], the survivor count is 5 of 6.

Take `CCOC(N)=O`: the survivor count (T/C endpoint: survival time, mean or median, dose: 1000.0 mg/kg/injection, schedule: Q01DX010 (ip), vehicle: saline) is 5 of 6 and 6 of 6.

On to `CCCCOP(=S)(N1CC1)N1CC1`, for which the survivor count (T/C endpoint: survival time, mean or median, dose: 32.0 mg/kg/injection, schedule: Q01DX010 (ip), vehicle: saline) is 6 of 6.

For `CCOC(=O)c1c[nH]c2ccc(N(CCCl)CCCl)cc12`, the T/C by setting is: (T/C endpoint: survival time, mean or median, dose: 10.0 mg/kg/injection, schedule: Q01DX010 (ip), vehicle: saline) 137 % of control; (T/C endpoint: survival time, mean or median, dose: 20.0 mg/kg/injection, schedule: Q01DX010 (ip), vehicle: saline) 137 % of control; (T/C endpoint: survival time, mean or median, dose: 40.0 mg/kg/injection, schedule: Q01DX010 (ip), vehicle: saline) 137 % of control.

In the case of `CC(=O)NC1=C(N2CC2)C(=O)C(NC(C)=O)=C(N2CC2)C1=O`, the survivor count runs as follows: (T/C endpoint: survival time, mean or median, dose: 2.0 mg/kg/injection, schedule: Q01DX015 (ip), vehicle: carboxymethylcellulose (CMC)) 9 of 10; (T/C endpoint: survival time, mean or median, dose: 4.0 mg/kg/injection, schedule: Q01DX015 (ip), vehicle: carboxymethylcellulose (CMC)) 10 of 10.

`CCCCNc1ncnc2c1cnn2C`: the survivor count is 6 of 6 (T/C endpoint: survival time, mean or median, dose: 125.0 mg/kg/injection, schedule: Q01DX010 (ip), vehicle: saline) and 0 of 6 (T/C endpoint: survival time, mean or median, dose: 250.0 mg/kg/injection, schedule: Q01DX010 (ip), vehicle: saline).

As to `O=C(Nc1ccc(C2=NCCN2)cc1)c1ccc(C(=O)Nc2ccc(C3=NCCN3)cc2)cc1`, the T/C (T/C endpoint: survival time, mean or median, dose: 4.0 mg/kg/injection, schedule: Q01DX010 (ip), vehicle: other) was 147, 150, 158, 174 % of control; the T/C (T/C endpoint: survival time, mean or median, dose: 8.0 mg/kg/injection, schedule: Q01DX010 (ip), vehicle: other) is on record as 155, 157, 219, 271 % of control; the T/C (T/C endpoint: survival time, mean or median, dose: 16.0 mg/kg/injection, schedule: Q01DX010 (ip), vehicle: other) was 152, 173, 177, 214 % of control; the T/C (T/C endpoint: survival time, mean or median, dose: 32.0 mg/kg/injection, schedule: Q01DX010 (ip), vehicle: other) was 140 (2×), 150, 155 % of control; the T/C (T/C endpoint: survival time, mean or median, dose: 64.0 mg/kg/injection, schedule: Q01DX010 (ip), vehicle: other) was 122 (2×), 142, 152 % of control.

In the case of `OCC1OC(n2cnc3c(=S)nc[nH]c32)C(O)C1O` (configuration not stated), under setting [8], the T/C is 125 % of control and the survivor count is 2 of 6.
